Results on five molecules are retold here after article PMC7196576, “Structural changes of a bacteriophage upon DNA packaging and maturation” (Protein & Cell, 2020).

Amino acid sequences for entries named in this document (tags omitted).
UniProt P19726: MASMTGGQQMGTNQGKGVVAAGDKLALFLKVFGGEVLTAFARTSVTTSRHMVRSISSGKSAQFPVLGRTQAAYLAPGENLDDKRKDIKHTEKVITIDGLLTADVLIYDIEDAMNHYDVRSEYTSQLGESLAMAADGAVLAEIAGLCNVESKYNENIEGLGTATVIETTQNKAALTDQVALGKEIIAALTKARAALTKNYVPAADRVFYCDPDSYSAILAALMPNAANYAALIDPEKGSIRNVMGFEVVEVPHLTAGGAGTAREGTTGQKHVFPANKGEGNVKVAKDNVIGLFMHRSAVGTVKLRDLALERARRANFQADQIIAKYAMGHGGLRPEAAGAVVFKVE

In test [1] the target is capsid shell protein gp10 of bacteriophage T7 (Escherichia coli bacteriophage T7) (UniProt P19726). In words: cryo-EM structure; mature T7 phage purified from cells; icosahedral, symmetry-mismatch and local reconstructions (shell 3.5 Å, asymmetric 7 Å, portal-tail complex 3.8 Å, core 6.0 Å).
Test [2] shares this target. In words: cryo-EM structure; DNA-free T7 capsid II particles (DNA packaging intermediate) purified from cells; asymmetric reconstruction about 10 Å, local reconstruction of the portal 4.9 Å.
For test [3] the target is unchanged. The description is as above. This is another data set of the same source.
Test [4] shares this target. In words: cryo-EM structure; mature T7 phage purified from cells; icosahedral, symmetry-mismatch and local reconstructions (shell 3.5 Å, asymmetric 7 Å, portal-tail complex 3.8 Å, core 6.0 Å). This is another data set of the same source.
Test [5] addresses T1, portal protein gp8 of bacteriophage T7 (Escherichia coli bacteriophage T7) (UniProt P03728).
T1 sequence: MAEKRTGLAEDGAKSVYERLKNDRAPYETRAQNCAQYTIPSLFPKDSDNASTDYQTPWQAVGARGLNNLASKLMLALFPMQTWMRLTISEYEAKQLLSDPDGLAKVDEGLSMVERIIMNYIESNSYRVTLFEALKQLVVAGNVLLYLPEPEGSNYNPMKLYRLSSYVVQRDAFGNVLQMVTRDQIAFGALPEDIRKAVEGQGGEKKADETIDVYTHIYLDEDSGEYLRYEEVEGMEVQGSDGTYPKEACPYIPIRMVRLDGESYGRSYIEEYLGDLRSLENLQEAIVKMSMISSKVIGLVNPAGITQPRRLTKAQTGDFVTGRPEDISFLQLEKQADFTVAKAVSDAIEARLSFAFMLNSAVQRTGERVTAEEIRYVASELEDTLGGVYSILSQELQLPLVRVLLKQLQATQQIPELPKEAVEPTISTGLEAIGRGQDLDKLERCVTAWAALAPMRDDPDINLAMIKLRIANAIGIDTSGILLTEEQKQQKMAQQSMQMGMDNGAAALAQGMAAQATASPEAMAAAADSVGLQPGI
Described as above.

Test [6] deals with T2, adaptor protein gp11 of bacteriophage T7 (Escherichia coli bacteriophage T7) (UniProt P03746).
T2 sequence: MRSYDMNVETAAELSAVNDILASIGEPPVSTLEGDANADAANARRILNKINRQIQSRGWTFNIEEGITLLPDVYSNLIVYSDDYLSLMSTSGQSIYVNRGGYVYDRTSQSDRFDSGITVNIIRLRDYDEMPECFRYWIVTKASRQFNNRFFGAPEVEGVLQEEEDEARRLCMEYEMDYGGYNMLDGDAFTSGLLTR
The description is as above.

No constants are given. Whether binding was seen depends on the method and setting. Some binding calls cover weakened binding; strength is not graded here.

In the case of “capsid shell protein gp10 of bacteriophage T7 (from UniProt P19726 1-345)”, the binding result in test [1] and in test [2] was “binds” each time.

B1: portal protein gp8 of bacteriophage T7 (natural protein, Escherichia coli bacteriophage T7, UniProt P03728 1-536, looked up)
chain: MAEKRTGLAEDGAKSVYERLKNDRAPYETRAQNCAQYTIPSLFPKDSDNASTDYQTPWQAVGARGLNNLASKLMLALFPMQTWMRLTISEYEAKQLLSDPDGLAKVDEGLSMVERIIMNYIESNSYRVTLFEALKQLVVAGNVLLYLPEPEGSNYNPMKLYRLSSYVVQRDAFGNVLQMVTRDQIAFGALPEDIRKAVEGQGGEKKADETIDVYTHIYLDEDSGEYLRYEEVEGMEVQGSDGTYPKEACPYIPIRMVRLDGESYGRSYIEEYLGDLRSLENLQEAIVKMSMISSKVIGLVNPAGITQPRRLTKAQTGDFVTGRPEDISFLQLEKQADFTVAKAVSDAIEARLSFAFMLNSAVQRTGERVTAEEIRYVASELEDTLGGVYSILSQELQLPLVRVLLKQLQATQQIPELPKEAVEPTISTGLEAIGRGQDLDKLERCVTAWAALAPMRDDPDINLAMIKLRIANAIGIDTSGILLTEEQKQQKMAQQSMQMGMDNGAAALAQGMAAQATASPEAMAAAADSVGLQPGI
notes: portal protein gp8, Escherichia coli bacteriophage T7; domains clip (294-334), stem (335-356 and 269-293), wing (1-268, 357-427), crown (428-492), C-terminal helical barrel; Native protein in the virion; dodecamer at one vertex; The C-terminal barrel is not seen in capsid II; also called T7 portal; source: in mature T7 phage and T7 capsid II particles purified from cells; copies: 12
With B1, the binding result in test [3] and in test [4] was “binds” throughout.

B2: adaptor protein gp11 of bacteriophage T7 (natural protein, Escherichia coli bacteriophage T7, UniProt P03746 1-196, looked up)
chain: MRSYDMNVETAAELSAVNDILASIGEPPVSTLEGDANADAANARRILNKINRQIQSRGWTFNIEEGITLLPDVYSNLIVYSDDYLSLMSTSGQSIYVNRGGYVYDRTSQSDRFDSGITVNIIRLRDYDEMPECFRYWIVTKASRQFNNRFFGAPEVEGVLQEEEDEARRLCMEYEMDYGGYNMLDGDAFTSGLLTR
notes: adaptor protein gp11, Escherichia coli bacteriophage T7; Native protein in the virion; dodecameric ring; also called tail adaptor; source: in mature T7 phage purified from cells; copies: 12
Consider B2, for which the binding result in test [5] is “binds”.

B3: tail fiber gp17 of bacteriophage T7 (natural protein, Escherichia coli bacteriophage T7, UniProt P03748 1-553, looked up)
chain: MANVIKTVLTYQLDGSNRDFNIPFEYLARKFVVVTLIGVDRKVLTINTDYRFATRTTISLTKAWGPADGYTTIELRRVTSTTDRLVDFTDGSILRAYDLNVAQIQTMHVAEEARDLTTDTIGVNNDGHLDARGRRIVNLANAVDDRDAVPFGQLKTMNQNSWQARNEALQFRNEAETFRNQAEGFKNESSTNATNTKQWRDETKGFRDEAKRFKNTAGQYATSAGNSASAAHQSEVNAENSATASANSAHLAEQQADRAEREADKLENYNGLAGAIDKVDGTNVYWKGNIHANGRLYMTTNGFDCGQYQQFFGGVTNRYSVMEWGDENGWLMYVQRREWTTAIGGNIQLVVNGQIITQGGAMTGQLKLQNGHVLQLESASDKAHYILSKDGNRNNWYIGRGSDNNNDCTFHSYVHGTTLTLKQDYAVVNKHFHVGQAVVATDGNIQGTKWGGKWLDAYLRDSFVAKSKAWTQVWSGSAGGGVSVTVSQDLRFRNIWIKCANNSWNFFRTGPDGIYFIASDGGWLRFQIHSNGLGFKNIADSRSVPNAIMVENE
notes: tail fiber protein gp17, Escherichia coli bacteriophage T7; only the N-terminus (a jelly-roll barrel and a 22-residue alpha-helix) was resolved; Native protein in the virion; six trimers a phage; The distal parts of the fibers were too flexible to be resolved; source: in mature T7 phage purified from cells
For B3, the binding entry in test [6] and in test [5] was “binds” each time.

B4: nozzle protein gp12 of bacteriophage T7 (natural protein, Escherichia coli bacteriophage T7, UniProt P03747 1-794, looked up)
chain: MALISQSIKNLKGGISQQPDILRYPDQGSRQVNGWSSETEGLQKRPPLVFLNTLGDNGALGQAPYIHLINRDEHEQYYAVFTGSGIRVFDLSGNEKQVRYPNGSNYIKTANPRNDLRMVTVADYTFIVNRNVVAQKNTKSVNLPNYNPNQDGLINVRGGQYGRELIVHINGKDVAKYKIPDGSQPEHVNNTDAQWLAEELAKQMRTNLSDWTVNVGQGFIHVTAPSGQQIDSFTTKDGYADQLINPVTHYAQSFSKLPPNAPNGYMVKIVGDASKSADQYYVRYDAERKVWTETLGWNTEDQVLWETMPHALVRAADGNFDFKWLEWSPKSCGDVDTNPWPSFVGSSINDVFFFRNRLGFLSGENIILSRTAKYFNFYPASIANLSDDDPIDVAVSTNRIAILKYAVPFSEELLIWSDEAQFVLTASGTLTSKSVELNLTTQFDVQDRARPFGIGRNVYFASPRSSFTSIHRYYAVQDVSSVKNAEDITSHVPNYIPNGVFSICGSGTENFCSVLSHGDPSKIFMYKFLYLNEELRQQSWSHWDFGENVQVLACQSISSDMYVILRNEFNTFLARISFTKNAIDLQGEPYRAFMDMKIRYTIPSGTYNDDTFTTSIHIPTIYGANFGRGKITVLEPDGKITVFEQPTAGWNSDPWLRLSGNLEGRMVYIGFNINFVYEFSKFLIKQTADDGSTSTEDIGRLQLRRAWVNYENSGTFDIYVENQSSNWKYTMAGARLGSNTLRAGRLNLGTGQYRFPVVGNAKFNTVYILSDETTPLNIIGCGWEGNYLRRSSGI
notes: nozzle protein gp12, Escherichia coli bacteriophage T7; Native protein in the virion; hexameric tube; source: in mature T7 phage purified from cells
For B4, in test [6], the binding result is reported as “binds”.
